The target in one assay is T1, GST-UPF1hel (human) (UniProt Q92900).
T1 sequence: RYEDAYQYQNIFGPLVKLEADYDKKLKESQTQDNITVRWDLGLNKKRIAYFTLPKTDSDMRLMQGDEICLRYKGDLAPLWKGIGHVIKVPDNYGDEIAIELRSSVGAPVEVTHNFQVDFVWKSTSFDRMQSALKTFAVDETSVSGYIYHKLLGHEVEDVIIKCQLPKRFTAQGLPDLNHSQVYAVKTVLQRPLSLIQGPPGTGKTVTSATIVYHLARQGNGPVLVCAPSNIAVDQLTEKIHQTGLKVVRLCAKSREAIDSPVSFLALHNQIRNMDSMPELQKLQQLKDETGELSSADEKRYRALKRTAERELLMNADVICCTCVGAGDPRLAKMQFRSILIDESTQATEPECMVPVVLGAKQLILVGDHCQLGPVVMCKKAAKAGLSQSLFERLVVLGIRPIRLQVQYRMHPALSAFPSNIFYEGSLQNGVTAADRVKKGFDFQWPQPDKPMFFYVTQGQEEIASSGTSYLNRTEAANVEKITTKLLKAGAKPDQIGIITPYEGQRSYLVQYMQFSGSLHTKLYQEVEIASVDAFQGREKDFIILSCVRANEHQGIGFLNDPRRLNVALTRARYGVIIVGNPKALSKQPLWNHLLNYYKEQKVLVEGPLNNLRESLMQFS
Briefly: pull-down; GST-fused bait and prey (8-12 ug each) mixed in GST-PD buffer (20 mM Hepes pH 7.5, 100 mM NaCl, 10% glycerol, 0.1% NP40), 45 min room temperature, captured on Glutathione Sepharose at 4 C, eluted with glutathione; SDS-PAGE, Coomassie; both purified.

The target of assay [1] is T2, Flag-tagged human MOV10 (full length) (human) (UniProt Q9HCE1).
T2 sequence: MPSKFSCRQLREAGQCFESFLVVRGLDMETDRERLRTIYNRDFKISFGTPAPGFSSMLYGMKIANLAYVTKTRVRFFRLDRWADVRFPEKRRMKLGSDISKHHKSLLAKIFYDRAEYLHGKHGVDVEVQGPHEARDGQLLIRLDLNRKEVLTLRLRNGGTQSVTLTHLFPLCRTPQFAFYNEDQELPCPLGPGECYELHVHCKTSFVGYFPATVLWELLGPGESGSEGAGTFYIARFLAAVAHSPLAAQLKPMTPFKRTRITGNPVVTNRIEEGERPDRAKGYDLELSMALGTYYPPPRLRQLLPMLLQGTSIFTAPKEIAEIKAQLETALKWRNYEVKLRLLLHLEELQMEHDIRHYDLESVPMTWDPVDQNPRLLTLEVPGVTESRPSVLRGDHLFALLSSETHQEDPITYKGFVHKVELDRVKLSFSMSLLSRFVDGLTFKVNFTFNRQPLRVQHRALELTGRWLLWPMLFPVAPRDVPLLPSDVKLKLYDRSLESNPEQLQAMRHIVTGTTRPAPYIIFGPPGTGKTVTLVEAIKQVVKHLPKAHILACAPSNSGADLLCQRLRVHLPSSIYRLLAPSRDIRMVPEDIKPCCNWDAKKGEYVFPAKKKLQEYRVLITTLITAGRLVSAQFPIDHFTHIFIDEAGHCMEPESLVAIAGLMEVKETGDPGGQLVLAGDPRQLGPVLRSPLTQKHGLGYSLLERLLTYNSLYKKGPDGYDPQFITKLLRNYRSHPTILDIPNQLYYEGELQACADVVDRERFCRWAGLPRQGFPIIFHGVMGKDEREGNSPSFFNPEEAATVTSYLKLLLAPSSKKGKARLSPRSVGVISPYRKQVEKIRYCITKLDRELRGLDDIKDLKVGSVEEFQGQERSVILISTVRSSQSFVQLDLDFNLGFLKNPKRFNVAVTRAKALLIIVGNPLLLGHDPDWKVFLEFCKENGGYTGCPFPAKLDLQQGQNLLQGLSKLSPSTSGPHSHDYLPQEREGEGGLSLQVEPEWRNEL
Briefly: co-IP; Flag-tagged bait immunopurified from HEK293 lysate on anti-Flag M2 agarose, 4-8 ug purified prey added for 45 min; washed with 20 mM Hepes pH 7.5, 70 mM NaCl, 10% glycerol, 1 mM MgCl2, 1 uM ZnCl2; SDS-PAGE, Coomassie; without RNase A; both purified.

Assay [2] addresses T3, Flag-tagged full-length UPF1 (human) (UniProt Q92900).
T3 sequence: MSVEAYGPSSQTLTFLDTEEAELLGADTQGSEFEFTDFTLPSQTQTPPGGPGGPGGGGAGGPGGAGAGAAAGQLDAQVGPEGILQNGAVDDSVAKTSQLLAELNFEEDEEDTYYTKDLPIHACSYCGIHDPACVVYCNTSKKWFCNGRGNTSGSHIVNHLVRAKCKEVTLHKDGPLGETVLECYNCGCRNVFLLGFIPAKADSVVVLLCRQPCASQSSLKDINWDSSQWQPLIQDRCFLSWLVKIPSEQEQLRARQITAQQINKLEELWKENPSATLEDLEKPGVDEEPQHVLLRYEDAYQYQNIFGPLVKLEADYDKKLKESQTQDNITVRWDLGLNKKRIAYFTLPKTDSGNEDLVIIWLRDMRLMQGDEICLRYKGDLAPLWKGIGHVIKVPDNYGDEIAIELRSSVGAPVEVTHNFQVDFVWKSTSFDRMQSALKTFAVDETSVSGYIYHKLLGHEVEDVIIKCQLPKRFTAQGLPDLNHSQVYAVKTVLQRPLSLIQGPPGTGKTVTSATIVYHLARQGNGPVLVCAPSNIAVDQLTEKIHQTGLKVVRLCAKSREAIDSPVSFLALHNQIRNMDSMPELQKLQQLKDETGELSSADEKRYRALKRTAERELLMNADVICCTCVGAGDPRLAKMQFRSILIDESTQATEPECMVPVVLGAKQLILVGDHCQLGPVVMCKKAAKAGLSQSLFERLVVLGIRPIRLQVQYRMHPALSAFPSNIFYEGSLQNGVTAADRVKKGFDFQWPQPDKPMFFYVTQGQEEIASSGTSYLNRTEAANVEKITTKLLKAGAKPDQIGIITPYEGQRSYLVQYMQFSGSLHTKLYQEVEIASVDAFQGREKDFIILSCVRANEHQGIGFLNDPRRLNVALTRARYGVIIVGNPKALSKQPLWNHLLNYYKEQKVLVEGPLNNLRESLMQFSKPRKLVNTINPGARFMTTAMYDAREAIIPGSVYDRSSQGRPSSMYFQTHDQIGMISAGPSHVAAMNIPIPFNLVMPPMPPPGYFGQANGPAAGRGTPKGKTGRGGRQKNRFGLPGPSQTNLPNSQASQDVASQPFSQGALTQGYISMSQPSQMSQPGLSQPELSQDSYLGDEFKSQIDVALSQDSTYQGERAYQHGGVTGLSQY
The description is as above.

In the next assay the target is T4, Flag-MOV10NTD (human) (UniProt Q9HCE1).
T4 sequence: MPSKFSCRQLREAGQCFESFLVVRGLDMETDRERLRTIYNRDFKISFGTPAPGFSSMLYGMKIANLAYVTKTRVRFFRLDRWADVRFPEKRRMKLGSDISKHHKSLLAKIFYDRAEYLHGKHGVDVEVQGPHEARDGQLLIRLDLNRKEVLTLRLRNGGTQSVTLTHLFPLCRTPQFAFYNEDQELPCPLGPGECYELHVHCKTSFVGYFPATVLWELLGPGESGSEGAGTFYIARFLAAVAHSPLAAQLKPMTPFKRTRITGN
Briefly: co-IP; as a2, but cell lysates treated with RNase A (60 ug/uL, 10 min, 25 C); SDS-PAGE, Coomassie, densitometry of the UPF2 band; both purified.

The target of assay [3] is T2, Flag-tagged human MOV10 (full length) (human). Described as above.
Assay [4] concerns the target T3, Flag-tagged full-length UPF1 (human). Described as above.

The values that follow come from paper PMC12305709, “Functional investigation of the RNA helicase MOV10 with respect to its interplay with factors involved in nonsense-mediated mRNA decay” (The Journal of Biological Chemistry, 2025).

Results are given in words; binding and its absence hold for the method and conditions named. Some results given as binding are weak or reduced against the parent protein; the word gives no strength. Sequences can lack the tags named with a protein.

B1: UPF2 (near full-length variant, residues 121-1227) (domain or fragment, human, UniProt Q9HAU5 121-1227, looked up)
chain: MKEKEESIQLHQEAWERHHLRKELRSKNQNAPDSRPEENFFSRLDSSLKKNTAFVKKLKTITEQQRDSLSHDFNGLNLSKYIAEAVASIVEAKLKISDVNCAVHLCSLFHQRYADFAPSLLQVWKKHFEARKEEKTPNITKLRTDLRFIAELTIVGIFTDKEGLSLIYEQLKNIINADRESHTHVSVVISFCRHCGDDIAGLVPRKVKSAAEKFNLSFPPSEIISPEKQQPFQNLLKEYFTSLTKHLKRDHRELQNTERQNRRILHSKGELSEDRHKQYEEFAMSYQKLLANSQSLADLLDENMPDLPQDKPTPEEHGPGIDIFTPGKPGEYDLEGGIWEDEDARNFYENLIDLKAFVPAILFKDNEKSCQNKESNKDDTKEAKESKENKEVSSPDDLELELENLEINDDTLELEGGDEAEDLTKKLLDEQEQEDEEASTGSHLKLIVDAFLQQLPNCVNRDLIDKAAMDFCMNMNTKANRKKLVRALFIVPRQRLDLLPFYARLVATLHPCMSDVAEDLCSMLRGDFRFHVRKKDQINIETKNKTVRFIGELTKFKMFTKNDTLHCLKMLLSDFSHHHIEMACTLLETCGRFLFRSPESHLRTSVLLEQMMRKKQAMHLDARYVTMVENAYYYCNPPPAEKTVKKKRPPLQEYVRKLLYKDLSKVTTEKVLRQMRKLPWQDQEVKDYVICCMINIWNVKYNSIHCVANLLAGLVLYQEDVGIHVVDGVLEDIRLGMEVNQPKFNQRRISSAKFLGELYNYRMVESAVIFRTLYSFTSFGVNPDGSPSSLDPPEHLFRIRLVCTILDTCGQYFDRGSSKRKLDCFLVYFQRYVWWKKSLEVWTKDHPFPIDIDYMISDTLELLRPKIKLCNSLEESIRQVQDLEREFLIKLGLVNDKDSKDSMTEGENLEEDEEEEEGGAETEEQSGNESEVNEPEEEEGSDNDDDEGEEEEEENTDYLTDSNKENETDEENTEVMIKGGGLKHVPCVEDEDFIQALDKMMLENLQQRSGESVKVHQLDVAIPLHLKSQLRKGPPLGGGEGEAESADTMPFVMLTRKGNKQQFKILNVPMSSQLAANHWNQQQAEQEERMRMKKLTLDINERQEQED
notes: UPF2, human, residues 121-1227; also called near full-length UPF2
For B1, the binding entry with GST-UPF1hel (human) was “no binding (tested: 8-12 ug of bait and of prey in 40 ul)”; in assay [1], “binds weakly”; in assay [2], “binds”; with Flag-MOV10NTD (human) it was “binds”; in assay [3], “binds”; in assay [4] it was “binds”.
